Paper PMC10522489, “Eukaryotic-like gephyrin and cognate membrane receptor coordinate corynebacterial cell division and polar elongation” (Nature Microbiology, 2023)

Target: Glp, endogenous (Corynebacterium glutamicum ATCC13032 (endogenous))
Experiment: affinity purification with mass spectrometry; Glp interactome: Cglu and Cglu_Δglpr cross-linked with 0.25% formaldehyde; anti-Glp antibodies on magnetic beads; control Cglu_Δglp; label-free XIC quantitation, 4 replicates

binding: binds
B1: FtsZ, endogenous (protein, UniProt P94337 1-442)
chain: MTSPNNYLAKIKVVGVGGGGVNAVNRMIEEGLKGVEFIAVNTDSQALMFSDADVKLDIGREATRGLGAGANPEVGRASAEDHKNEIEETIKGADMVFVTAGEGGGTGTGAAPVVAGIAKKMGALTIGVVTKPFEFEGRRRTRQAEEGIAALKEVCDTLIVIPNDRLLELGDANLSIMEAFRAADEVLHNGVQGITNLITIPGVINVDFADVRSVMSEAGSALMGVGSARGDNRVVSATEQAINSPLLEATMDGATGVLLSFAGGSDLGLMEVNAAASMVRERSDEDVNLIFGTIIDDNLGDEVRVTVIATGFDAARASAAENRRAGISAAPAAEPVQQQVPTTNATLPPEKESIFGGAREENDPYLSRSAGARHRIEETRSGGGLFTTGNDRDYRRDERREDHRDERRDERRDDRSYDRRDDRRDDRRDDRGDDLDVPSFLQ

No constants are given. Whether binding was seen depends on the method and setting. Binding seen in cells or lysates may run through a third protein. Here binding means that the protein was enriched with, or labelled near, the bait; the list need not be complete.
